# According to PubChem BioAssay AID624297 (National Center for Advancing Translational Sciences (NCATS), 2012):
# “And” between values parts separate entries of the source, which are not always exact repeats. Equal entries are not always repeated. The campaign covered roughly 340,000 compounds. About 6,200 (1.8%) were called active. The shares of active, inactive and inconclusive entries below differ from those in the screen. Calls come from the whole dose curve; as a rule, active = well fitted activation curve with a large enough effect; inconclusive = small, poorly fitted or top-dose-only effect; inactive = no such curve, though single readings can be large or run the other way. Potencies beside an inconclusive call are fits to weak or partial responses and may not hold up.
# Experiment: A quantitative high throughput screen for small molecules that induce DNA re-replication in SW480 colon adenocarcinoma cells. For re-replication activation: % of control where 0% means no effect. Note: nearly all actives have a fitted effect of over 55% in size.
# Conditions: Hoechst DNA content imaging, 48 h; re-replication activation: at 46.1 µM (top of the series) unless noted
# Summary of the method: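 Image-based DNA-content assay: after two days of treatment, nuclei were labelled with the DNA dye Hoechst and imaged, and hits were compounds raising the count of nuclei showing high fluorescence intensity.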
# Potency is the fitted concentration of half-maximal effect.
SMILES,Potency,re-replication activation
COC(=O)[C@H](Cc1ccccc1)NC(=O)N1Cc2ccccc2C[C@H]1C(=O)OC,"inconclusive: 4.11 µM [activator, full curve, poor fit]",
Cc1ccc(S(=O)(=O)c2nc(S(C)(=O)=O)sc2N2CCC3(CC2)OCCO3)cc1,"inconclusive: 16.4 µM [activator, single point]",
N#Cc1c(NC(=O)c2nc3ncccn3n2)sc2c1CCCCC2,,inactive: -6.66%
CCOc1ccccc1CNS(=O)(=O)c1ccc2c(c1)C(C)(C)C(=O)N2C,,inactive: -5.73%
CCOC(=O)CSc1nc(=O)n2cc(C)ccc2n1,,inactive: -2.15%
Cc1ccc(S(=O)(=O)N2CCCC(C(=O)NCC(C)C)C2)cc1 (configuration not stated),"inconclusive: 0.082 µM [activator, partial curve, poor fit]",
CCOC(=O)N1CCC(NC(=O)c2cc(S(=O)(=O)N(CC)CC)ccc2F)CC1,active: 0.731 µM,
COc1cc(NC(=O)CSc2nc(C)c(C)c(C)n2)c(C)cc1[N+](=O)[O-],,inactive: -13.9%
O=C(O)CCC(=O)N1CCN(S(=O)(=O)c2ccc3ccccc3c2)CC1,,inactive: 8.65%
O=C(N/N=C/c1ccc2c(c1)OCO2)c1ccccn1,,inactive: 8.39%
Cc1cc(C)n2nc(C(=O)Nc3cccnc3)nc2n1,"inconclusive: 29.1 µM [activator, single point]",
O=C1C2C(C(=O)N1c1nccs1)C1C=CC2C12CC2 (configuration not stated),"inconclusive: 0.92 µM [activator, full curve, poor fit]",
CC1=C(C(=O)OC2CCCCCC2)C(c2ccc(C)o2)C2=C(CCCC2=O)N1 (configuration not stated),"inconclusive: 29.1 µM [activator, partial curve, poor fit]",
CCOC(=O)c1[nH]c(C)c(/C(O)=C2\C(=O)C(=O)N(CCN(C)C)C2c2ccc(C)o2)c1C (configuration not stated),"inconclusive: 16.4 µM [activator, single point]",
O=S(=O)(Nc1ccc(Br)cc1)c1cccc2cccnc12,"inconclusive: 6.51 µM [activator, single point]",
O=S(=O)(Nc1ccc(-n2cnnn2)cc1)c1cccs1,,inactive: 2.28%
O=C(NCCCl)NNC(=O)c1cc2ccccc2cc1O,"inconclusive: 20.6 µM [activator, partial curve, poor fit]",
CCOc1ccc(NC(=O)NC2CCS(=O)(=O)C2)cc1 (configuration not stated),,inactive: -0.123%
COC(=O)c1ccc(NS(=O)(=O)c2cc(-c3cc(C)no3)ccc2OC)cc1,active: 18.4 µM,
COC(=O)c1ccc2[nH]cc(CCO)c2c1,,inconclusive: 31.9% [activator]
CCCCNC(=O)NNC(=O)c1ccc(F)cc1,"inconclusive: 0.517 µM [activator, partial curve, poor fit]",
Cc1cc(C(=O)N/N=C/c2cccnc2)c2ccccc2n1,"inconclusive: 29.1 µM [activator, partial curve, poor fit]",
O=C(CNC(=O)c1ccccc1)OCCCOC(=O)CNC(=O)c1ccccc1,,inactive: -6.67%
Cc1cccc(N=C2NC(=O)/C(=C/c3cccn3C)S2)c1,"inconclusive: 29.1 µM [activator, single point]",

SMILES,Potency,re-replication activation
O=C(CC1(O)C(=O)Nc2ccc(Br)cc21)c1ccc2c(c1)OCO2 (configuration not stated),"inconclusive: 14.6 µM [activator, partial curve]",
CCCCn1c(=O)[nH]c(=O)c2c1nc(-c1ccc(-c3ccc(F)cc3)o1)n2C,"inconclusive: 25.9 µM [activator, single point]",
CCOC(=O)N1CCN(c2nc(-c3cccs3)nc3ccccc23)CC1,"inconclusive: 29.1 µM [activator, single point]",
Nc1nc(N)c(N=Nc2ccc(SCC(=O)O)cc2)c(=O)[nH]1,,inactive: 0.0106%
COc1cc(/C=C/C(=O)O)cc(S(=O)(=O)Nc2cc(Cl)c(Cl)cc2Cl)c1OC,"inconclusive: 23.1 µM [activator, single point]",
NC(=O)C1CCN(CC(O)COc2ccc(-c3ccccc3)cc2)CC1 (configuration not stated),"inconclusive: 20.6 µM [activator, partial curve, poor fit]",
Cc1ccc(Nc2nc3ccccc3s2)cc1,,inactive: -1.62%
O=C(NC1CC(=O)N(c2ccccc2)C1)N1CCN(C(=O)c2ccco2)CC1 (configuration not stated),,inactive: 0.909%
O=C(COC(=O)CCN1C(=O)c2cccc([N+](=O)[O-])c2C1=O)NC1CCS(=O)(=O)C1 (configuration not stated),,inactive: 11.7%
Cc1cc2cc(C(=O)N3CCc4c([nH]c5ccccc45)C3c3ccccn3)ccc2o1 (configuration not stated),"inconclusive: 25.9 µM [activator, single point]",
CCNc1nc(Oc2c(Cl)cccc2Cl)cc(C(F)(F)F)n1,,inactive: -6.89%
CCc1c(C)c2cc(Cl)c(O)c(CN(C)C)c2oc1=O,"inconclusive: 32.6 µM [activator, partial curve, poor fit]",
CN(C)c1ccc(N=Nc2nc3ccccc3n2C)cc1,"inconclusive: 29.1 µM [activator, single point]",
CCCCn1c(N)c(N(Cc2ccccc2OC)C(=O)c2ccc([N+](=O)[O-])s2)c(=O)[nH]c1=O,active: 20.6 µM,
O=C(N/N=C/c1ccc2c(c1)OCO2)c1ccc2c(c1)OCO2,,inactive: -7.2%
CS(=O)(=O)c1ccc2nc(NC(=O)c3cc(-c4ccccc4)nn3-c3ccccc3)sc2c1,,inactive: 0.295%
Fc1ccc(Sc2nc(-c3ccccc3)nnc2C(F)(F)F)cc1,"inconclusive: 20.6 µM [activator, single point]",
CN1C/C(=N\S(=O)(=O)c2ccccc2)N(C)C1=O,"inconclusive: 32.6 µM [activator, single point]",
COCCn1c(=O)[nH]c(=O)c2c1nc(-c1ccc(-c3ccc(Cl)cc3[N+](=O)[O-])o1)n2Cc1ccccc1,"inconclusive: 11.6 µM [activator, single point]",
Cc1cccc(N2CCN(CCNC(=O)c3cc4c(s3)CS(=O)(=O)C4)CC2)c1C,,inactive: -5.27%
COc1ccccc1N1CCN(CCNC(=O)Nc2cccc(C)c2C)CC1,"inconclusive: 15.8 µM [activator, single point]",
CCc1sc(C(C2C(=O)CC(C)(C)CC2=O)C2C(=O)CC(C)(C)CC2=O)cc1[N+](=O)[O-],,inactive: -7.44%
CCOc1ccc(-n2c(O)c(/C=N/c3ccnn3Cc3ccncc3)c3ccccc3c2=O)cc1,active: 20.6 µM,
COCCNC(=O)Cn1nc(-c2ccc(C)cc2)ccc1=O,,inactive: -23.8%

SMILES,Potency,re-replication activation
O=C(/C=C/c1ccc(F)cc1)c1cc(Br)ccc1O,,inactive: 27.5%
Cc1cc(NC(=O)COc2cccc(Oc3ccccc3)c2)no1,"inconclusive: 20.6 µM [activator, single point]",
CCOc1ccccc1N(C)S(=O)(=O)c1ccc2c(c1)CC(C)N2C(=O)C1CC1 (configuration not stated),"inconclusive: 25.9 µM [activator, single point]",
C[N+](C)(C)CCOC(N)=O,"inconclusive: 1.26 µM [activator, single point]",
COc1ccc(NC(=O)c2cnc(C)cn2)cc1-n1cnnn1,"inconclusive: 12.6 µM [activator, partial curve, poor fit]",
CC(C)c1nc(SCC(=O)N2CC(=O)Nc3ccccc32)c2ccccc2n1,,inactive: 2.11%
Cc1cc(S(=O)(=O)N2CCN=C2c2ccccc2)c(C)cc1Cl,,inactive: 0.315%
COc1cccc(/C=C/C(=O)c2cccc([N+](=O)[O-])c2)c1,"inconclusive: 29.1 µM [activator, single point]",
CCN(C(=O)c1ccc(Cl)c(S(=O)(=O)Nc2c(C)n(C)n(-c3ccccc3)c2=O)c1)c1ccccc1,,inactive: -6.18%
Cc1ccc(-c2nn(CC(=O)NCc3ccco3)c(=O)c3ccccc23)cc1,"inconclusive: 32.6 µM [activator, partial curve, poor fit]",
CC1=C/C(=N\NC(=S)Nc2cccnc2)CC(C)(C)C1,"inconclusive: 29.1 µM [activator, partial curve, poor fit]",
CC(=O)Nc1cccc(C(=O)NCCc2ccco2)c1,,inactive: 16%
CC(C)(C)C1CCc2c(sc(NC(=O)C3CCCO3)c2C(N)=O)C1 (configuration not stated),"inconclusive: 29.1 µM [activator, single point]",
Cc1cc(=O)[nH]c(N/N=C/c2ccccc2Cl)n1,,inactive: 11.2%
COc1ccc2[nH]c(=O)c(CNc3cc(C)ccc3C)cc2c1,"inconclusive: 29.1 µM [activator, partial curve, poor fit]",
Cc1nc2sccn2c(=O)c1CCN1CCC(=C(c2ccc(F)cc2)c2ccc(F)cc2)CC1,"inconclusive: 2.51 µM [activator, partial curve] and inconclusive: 23.1 µM [activator, single point]",
O=C(NCc1nnc(SCC(=O)N2CCN(c3ccccc3)CC2)o1)c1c(F)cccc1Cl,,inactive: -2.14%
O=C(COC(=O)C1CCC1)Nc1cccc(S(=O)(=O)N2CCOCC2)c1,"inconclusive: 0.146 µM [activator, full curve, poor fit]",
N#CCCn1cc(C(=O)Nc2ccccc2Br)c(-c2cc3ccccc3o2)n1,"inconclusive: 5.62 µM [activator, partial curve, poor fit]",
C/C(N)=C(/C#N)C(=O)COC(=O)c1cc(-c2ccc(Br)cc2)nc2ccccc12,"inconclusive: 16.4 µM [activator, single point]",
CC(Sc1c[nH]c2ccccc12)C(=O)O (configuration not stated),"inconclusive: 18.4 µM [activator, single point]",
CCOc1ccc(-c2cnc3ccccc3n2)cc1,,inactive: 6.39%
Cn1cc(C(=O)c2cccc(Cl)c2Cl)cc1C#N,"inconclusive: 23.1 µM [activator, single point]",
O=c1oc(-c2cccs2)nc2c1cnn2-c1ccccc1,"inconclusive: 31.6 µM [activator, single point]",

# Full records, looked up by structure:
# COc1ccc2[nH]c(=O)c(CNc3cc(C)ccc3C)cc2c1 is listed as Potency: inconclusive: 29.1 µM [activator, partial curve, poor fit]
# COc1ccccc1N1CCN(CCNC(=O)Nc2cccc(C)c2C)CC1 is listed as Potency: inconclusive: 15.8 µM [activator, single point]
# COc1cc(NC(=O)CSc2nc(C)c(C)c(C)n2)c(C)cc1[N+](=O)[O-] is listed as re-replication activation: inactive: -13.9%
# CC1=C(C(=O)OC2CCCCCC2)C(c2ccc(C)o2)C2=C(CCCC2=O)N1 (configuration not stated) is listed as Potency: inconclusive: 29.1 µM [activator, partial curve, poor fit]
